Results deposited as PubChem BioAssay AID1224828 (NIAID, 2016)
Aim: 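Regulators linking TLR4 signalling to p65 nuclear translocation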 (primary screen). Cells: mouse RAW264.7 G9 macrophage reporter cells (GFP-p65, Tnf promoter-mCherry). Reagent: siRNA pool against mouse genes, 100 nM. Timing: 2 days siRNA transfection, then 40 min LPS before fixation. Conditions: LPS (Salmonella minnesota R595) at 10 ng/ml. Measurement: 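Imaged p65 nuclear translocation ratio, normalised to the plate median, converted to robust z-scores and averaged across two replicates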. Direction: p65 translocation robust z-score: higher = more nuclear NF-kappaB p65 after LPS than the plate median; nuclear/cytoplasmic p65 ratio: higher = more nuclear NF-kappaB p65. Rule for the call: 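Called active when z exceeds 3.3 or falls under -1.56 (median of Tlr4 controls), giving activity score of at least 50; no calls for control wells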. Meaning of the calls: active = hit (p65 shift raised or lowered); inactive = no clear change.
Here is an unselected part of about 17,000 reagents tested. In the full data, 762 (4.5%) were called active. 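Active calls include both raised and lowered p65 entry, mostly lowered; wells with fewer than 50 cells lack a z-score.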 The raw values are shown without normalisation. Entries without a mark were called inactive. A reagent listed more than once was tested more than once; the source does not tell the runs apart.

gene symbol | p65 translocation robust z-score | nuclear/cytoplasmic p65 ratio, rep 1 | nuclear/cytoplasmic p65 ratio, rep 2 | low cell count flag
Ubtd2 (GeneID 327900) | -1.3 | 1.44 | 1.4 | enough cells to score
Gpr180 (GeneID 58245) | 1.15 | 1.73 | 1.44 | enough cells to score
Irs3 (GeneID 16369) | -0.03 | 1.6 | 1.38 | enough cells to score
Or9m2 (GeneID 258639) | -1.1 | 1.55 | 1.37 | enough cells to score
Mrpl15 (GeneID 27395) | 0.23 | 1.81 | 1.64 | enough cells to score
Grtp1 (GeneID 66790) | -0.42 | 1.67 | 1.4 | enough cells to score
Ccdc142 (GeneID 243510) | 0.24 | 1.61 | 1.56 | enough cells to score
Pcolce2 (GeneID 76477) | -1.92 (active) | 1.13 | 1.07 | enough cells to score
Zfp106 (GeneID 20402) | -0.6 | 1.36 | 1.16 | enough cells to score
Zdhhc5 (GeneID 228136) | – | 1.29 | 1.14 | fewer than 50 cells per well; well left out of scoring
Atp5mj (GeneID 70257) | – | 1.3 | 0.983 | fewer than 50 cells per well; well left out of scoring
Tmem234 (GeneID 76799) | -0.08 | 1.37 | 1.48 | enough cells to score
Ciao1 (GeneID 26371) | -1.76 (active) | 1.39 | 1.31 | enough cells to score
Gfra3 (GeneID 14587) | -0.23 | 1.38 | 1.36 | enough cells to score
Pphln1-ps1 (GeneID 66598) | -0.56 | 1.22 | 1.3 | enough cells to score
Pikfyve (GeneID 18711) | 0 | 1.46 | 1.45 | enough cells to score
Sac3d1 (GeneID 66406) | – | 1.38 | 1.32 | fewer than 50 cells per well; well left out of scoring
Tlx2 (GeneID 21909) | -1.42 | 1.39 | 1.25 | enough cells to score
Grm3 (GeneID 108069) | -0.53 | 1.41 | 1.53 | enough cells to score
Arhgef25 (GeneID 52666) | -0.81 | 1.45 | 1.65 | enough cells to score
Zfp13 (GeneID 22654) | -0.44 | 1.33 | 1.22 | enough cells to score
LOC381853 | 0.39 | 1.53 | 1.67 | enough cells to score
Iqcf3 (GeneID 68265) | -1.12 | 1.25 | 1.18 | enough cells to score
Bpi (GeneID 329547) | 0.64 | 1.77 | 1.65 | enough cells to score
Mip (GeneID 17339) | -0.11 | 1.46 | 1.3 | enough cells to score
Pex39 (GeneID 67101) | – | 1.28 | 1.43 | fewer than 50 cells per well; well left out of scoring
Spns2 (GeneID 216892) | -0.84 | 1.37 | 1.8 | enough cells to score
Pik3cb (GeneID 74769) | 0.23 | 1.83 | 1.32 | enough cells to score
Pik3cb (GeneID 74769) | 0.25 | 1.56 | 1.61 | enough cells to score

Entries listed above marked active, once more:
gene symbol | p65 translocation robust z-score | nuclear/cytoplasmic p65 ratio, rep 1 | nuclear/cytoplasmic p65 ratio, rep 2 | low cell count flag
Pcolce2 (GeneID 76477) | -1.92 (active) | 1.13 | 1.07 | enough cells to score
Ciao1 (GeneID 26371) | -1.76 (active) | 1.39 | 1.31 | enough cells to score

Next records follow:
gene symbol | p65 translocation robust z-score | nuclear/cytoplasmic p65 ratio, rep 1 | nuclear/cytoplasmic p65 ratio, rep 2 | low cell count flag
Adcy6 (GeneID 11512) | -0.41 | 1.45 | 1.64 | enough cells to score
Bsdc1 (GeneID 100383) | 0.96 | 1.46 | 1.61 | enough cells to score
Sh3rf1 (GeneID 59009) | 0.16 | 1.51 | 1.27 | enough cells to score
Flvcr1 (GeneID 226844) | -3.33 (active) | 0.984 | 1.07 | enough cells to score
Tnfsf13 (GeneID 69583) | – | 1.46 | 1.07 | fewer than 50 cells per well; well left out of scoring
Ntf3 (GeneID 18205) | -0.14 | 1.44 | 1.38 | enough cells to score
Mansc1 (GeneID 67729) | – | 1.33 | 1.57 | fewer than 50 cells per well; well left out of scoring
Slc6a5 (GeneID 104245) | 0.39 | 1.5 | 1.26 | enough cells to score
Apon (GeneID 28194) | 0.93 | 1.64 | 2.01 | enough cells to score
Mast2 (GeneID 17776) | 1.03 | 1.67 | 1.65 | enough cells to score
Snu13 (GeneID 20826) | – | 1.41 | 1.13 | fewer than 50 cells per well; well left out of scoring
Rnase6 (GeneID 78416) | 0.67 | 1.43 | 1.29 | enough cells to score
Shroom2 (GeneID 110380) | 1.69 | 1.88 | 1.72 | enough cells to score
Abhd4 (GeneID 105501) | -0.26 | 1.53 | 1.62 | enough cells to score
Slc20a2 (GeneID 20516) | 1.52 | 1.61 | 1.42 | enough cells to score
Srsf2 (GeneID 20382) | -0.7 | 1.42 | 1.48 | enough cells to score
Kifc2 (GeneID 16581) | – | 1.31 | 1.24 | fewer than 50 cells per well; well left out of scoring
Lrrtm3 (GeneID 216028) | -0.93 | 1.58 | 1.4 | enough cells to score
Niban2 (GeneID 227737) | -0.46 | 1.38 | 1.46 | enough cells to score
Hunk (GeneID 26559) | -1.43 | 0 | 1.2 | enough cells to score
Exo5 (GeneID 73172) | – | 1.31 | 1.1 | fewer than 50 cells per well; well left out of scoring
Rtn4 (GeneID 68585) | 1.04 | 1.56 | 1.25 | enough cells to score
Atf1 (GeneID 11908) | 0.14 | 1.57 | 1.7 | enough cells to score
Pxylp1 (GeneID 235534) | -0.15 | 1.41 | 1.41 | enough cells to score
Plk2 (GeneID 20620) | 1.06 | 1.38 | 1.51 | enough cells to score
Vegfd (GeneID 14205) | 0.17 | 1.45 | 1.4 | enough cells to score
Maf1 (GeneID 68877) | 1.7 | 1.97 | 1.8 | enough cells to score
Ptgdr2 (GeneID 14764) | 1.36 | 1.61 | 1.87 | enough cells to score
Rbm17 (GeneID 76938) | 1.53 | 1.65 | 1.36 | enough cells to score
Rabl2 (GeneID 68708) | 0.12 | 1.56 | 1.51 | enough cells to score
